# In patent publication US9738660B2, “Selective inhibitors for protein kinases and pharmaceutical composition and use thereof” (National Chiao Tung University, priority 2014, dated 2017):
# Test system: 40 types of protein kinases
# Experiment: Selectivity over the panel of 40 protein kinases
# Assay type: biochemical
# Settings: 500 nM; inhibited = residual kinase activity less than or equal to 50%
# Text: Kinase Profiler services provided by […]. (http://www.reactionbiology.com) were used to analyze the data of the 9 type-S protein kinase inhibitors against the 40 types of protein kinases.
smiles,measurement,value
"CN[C@@H]1C[C@H]2O[C@@](C)([C@@H]1OC)n1c3ccccc3c3c4c(c5c6ccccc6n2c5c31)C(=O)NC4 [STU, staurosporine, reference compound]",number of types of protein kinases inhibited out of 40 tested,39
same,percentage of the 40 types of protein kinases inhibited,97.5%
